Assay: soluble on expression in E. coli; label from the status in PepcDB or PDB records

## APQQINDIVHRTITPLIEQQKIPGMAVAVIYQGKPYYFTWGYADIAKKQPVTQQTLFELGSVSKTFTGVLGGDAIARGEIKLSDPTTKYWPELTAKQWNGITLLHLATYTAGGLPLQVPDEVKSSSDLLRFYQNWQPAWAPGTQRLYANSSIGLFGALAVKPSGLSFEQAMQTRVFQPLKLNHTWINVPPAEEKNYAWGYREGKAVHAAAVSPGALDAEAYGVKSTIEDMARWVQSNLKPLDINEKTLQQGIQLAQSRYWQTGDMYQGLGWEMLDWPVNPDSIINGSDNKIALAARPVKAITPPTPAVRASWVHKTGATGGFGSYVAFIPEKELGIVMLANKNYPNPARVDAAWQILNALQ
  soluble on expression in E. coli: soluble

## ARHCGHCPEEWITYSNSCYYIGKERRTWEESLLACTSKNSSLLSIDNEEEMKFLSIISPSSWIGVFRNSSHHPWVTMNGLAFKHEIKDSDNAELNCAVLQVNRLKSAQCGSSIIYHCKHK
  soluble on expression in E. coli: soluble

## GPGSMVALRADMDALPEDEETDLPFKSQNKGAMHARGHEAHTAMLRSAAKVICARQADIEGSVRFIFQHAEELLPGGAKDLVAAGVMEGVKNIFGMHCSPRCEAGTVGLIPGINTSYADSFKLIIRGRGDHASTPQLLVDPVPITAEIVMAIQTITARKIDPRVVPVVSITTMTTGSSESHNVIPNEVKLMGTEWARDKAVREQVLRDIERIASNIAAAHGAAATSDFTFGHDCCDNDPEVTAQVRCIGERILGSANIIDPKAPLYGGEDFSAYQLEKPGCFLWLGTADKSQGICEMCHSTKFRVDETALPVGVSFHVGYVYDNVMA
  soluble on expression in E. coli: not soluble

## KVKLKKEIVTLGVEGIDPRHVVGTYVKPQDWNDLIADPEVFVVDTRNDYEIEIGTFKGAVNPNTETFREFPDYVKENMDPAKHKKVAMFCTGGIRCEKSTAYMKEQGFEEVYHLEGGILKYLEEVPQEESMWEGDCYVFDGRVAVNHQLEKA
  soluble on expression in E. coli: not soluble

## MAIAETDTEVHTPFEQDFEKDVAATQRYFDSSRFAGIIRLYTARQVVEQRGTIPVDHIVAREAAGAFYERLRELFAARKSITTFGPYSPGQAVSMKRMGIEAIYLGGWATSAKGSSTEDPGPDLASYPLSQVPDDAAVLVRALLTADRNQHYLRLQMSERQRAATPAYDFRPFIIADAGTGHGGDPHVRNLIRRFVEVGVPGYHIEDQRPGTKKCGHQGGKVLVPSDEQIKRLNAARFQLDIMRVPGIIVARTDAEAANLIDSRADERDQPFLLGATKLDVPSYKSCFLAMVRRFTNWASRSSMVIFSMRLATASTRRPAVGLSAKAFSAWSPTRSTRGGRTASSRSTAFSTRSSRGSWRPGRTTRA
  soluble on expression in E. coli: not soluble

## MAKIPVTVLSGYLGSGKTTLLNHILKNREGRRIAVIVNDMSEVNIDKDLVAQGGGLSRTDEKLVELSNGCICCTLRDDLLREVERLVHKGGIDQIVIESTGISEPVPVAQTFSYIDEELGIDLTSICRLDTMVTVVDANRFVNDIRSEDLLADRDESVDDEDERTIADLLIDQVEFCDVMIINKIDLISDKALEKLENVLRALQPEAKIIKTVNAKVELSDVLNTQLFDFEKASESAGWIKELTAGGHATHTPETEEYGITSFAYTRRLPFHAKRFHQWLEQMPENIVRTKGIVWLAQYNDVACLLSQAGSSCNIHPVTYWVATMSESQQQAILEARQDVVEDWDIEYGDRQTQFVIIGTDLDQEKISRELDACLIHSSEIDEDWRLLDSPYQWTYDRRM
  soluble on expression in E. coli: not soluble

## MGGSHHHHHHGMASALMLPYPSALGDQYWEEILLPKNGENVETMKKLTQNHKAKGLPSNDTDCPQKKEGKAQIVVPVTFRDVTVIFTEAEWKRLSPEQRNLYKEVMLENYRNLLSLGQEIETILANIVKSHLY
  soluble on expression in E. coli: not soluble

## MGHHHHHHSHAPHKHGFLEGRHAELCFLDVIPFWKLDLDQDYRVTCFTSWSPCFSCAQEMAKFISKNKHVSLCIFTARIYDDQGRCQEGLRTLAEAGAKISIMTYSEFKHCWDTFVDHQGCPFQPWDGLDEHSQDLSGRLRAILQNQEN
  soluble on expression in E. coli: not soluble

## MGHHHHHHSHMETESGSVAQAGVQWHNLGSLQPPPSRLKQLSYLSLPSSWDYRCTPPHPANFLYFNRDGISPCCPGWSPTPKLTQSTHLGLSKC
  soluble on expression in E. coli: not soluble

## MGHHHHHHSHMKSLILPPEHILKRGDSEAIAYAFFHLQHWKQIEGALNLLQCTWEGTFRMIPYPLEKGHLFYPYPSCTETADRELLPTFHHVSVYPKKELPLFIHFTAGFCSSTAMIAILTHQFPEIMGIFAKAVLGLWCPQPWASSGFEENTQDLKSEDLGLSSG
  soluble on expression in E. coli: not soluble

## MMEPVEECDENVGAFQWQQASETLTAIRQRFGFALETADQEDQARAVRFTWSLKKTSMLEPDEILKEIQKVLESYGIDYEQQKRYLLRCSHVDPLTDASVKWDIEVCTLPRLYLNGVHFQRISGSSSDFKNITTKISEELDI
  soluble on expression in E. coli: not soluble

## MSADVERVLIQLQDEAGEVLGSPFDVPLDISPDKLQLVCNALLQKEEPVPFLFFVKDAELVSSLGSCIQTLGLETEQVLPVVYQPQAVFRVRAVARCTSSLEGHTEAVISVAFSPTGKYLASGSGDTTVRFWDLSTETPHHTSRGHTHWVLSIAWSPDGKKLASGCKNSQIFLWDPVTGKQIGKTLTGHTKWITWLCWEPLHLNPECRYLASTSKDCTIRIWDTVLGRYDKILTGHTHSVTCVKWGGDGLLYTSSQDRTIKVWRAKDGVQCRTLQGHAHWVNTLALSTDYVLRTGAFEPANATINPQDLTGSLEEIKEKALKRYNSVRGEGHERLVSGSDDFTMFLWNPAEDKKPVARLTGHQALVNEVLFSPDTRLIASASFDKSIKIWDGKTGKYLNSLRGHVGPVYQVAWSADSRLLVSGSSDSTLKVWDIKTGKLNADLPGHADEVFAVDWSPDGQRVASGGKDKCLRIWRK
  soluble on expression in E. coli: soluble

## MSIMRTRTLQEVFEESKLVISQLTEEEIHEFKEAFLLFDKDGNGTISIKELGVAMRALGQNPTEQQMMEIIHDVDLDGNGQVEFPEFCVMMKRIMKETDSEMIREAFKIFDRDGNGVITANEFKLFMINMGMCFDEVEVEEMMNEVDCDGNGEIDYEEFVKIFS
  soluble on expression in E. coli: not soluble

## MSLKIAIEGCAHGELEKIYDLIGSIQEEQNITVDLLICCGDFQSTRNLQDLQCMAVPQKHLDMCSFYKYYSGEKKAPILTLFIGGNHEASNYLQELPYGGWVAPNIYYLGYAGVVDCNGIRIGGISGIYKGHDFLKGRFEFPPYDEGSKRSVYHQRQIDVFRLKQLSPGVDIMLSHDWPRGITRHGNETQLLRFKPAFREDIESNRLGSMPCEELLRKLQPPYWFAAHLHCKFAALVEHPGERCTKFLALDKCLPKRRFLQILDIPTAEDEGHHHHHH
  soluble on expression in E. coli: not soluble

## MSSYPSSGRRRPITRSEAEERALDKISREAEARMKLKRETREQARQGRYQLLEKKVEEDAEAYRHDTADKVIELQDRVQQVMFLYSQLDNEKSTLLYEVDLLKDELEEKDASLNLSSRECRDLTSEVKALKRTIDALHASQQQLKQEISQRDQLIQENGLCLVEEDPDDEGSESTNNASGEIRSGPYLFKRETIRLVDRVVPGAASLDDKIQKLVDTNKKMRKDYEELEQTIYTQRHARNARDSANVIPNQGVDDVNKDAAKQLAEMKLKMQDLERENTNQQGNVIRMEGQMKRYKSNADVAEKELDELKTQMRQTKKELRDKENALDEQKETNKHLQSRLEKMRMQRTGRPL
  soluble on expression in E. coli: not soluble

## MVAITTAASRLGVAPYNESRPVELRPDFSLDDAKMVIRAVYRQVLGNDYIMDSERLKGAESLLTNGSISVREFVRTVAKSELYKKKFLYNNFQTRVIELNYKHLLGRAPFSEDEVIFHLDLYENQGFDADIDSYIDSVEYQENFGENIVPYYRFNNQVGDRTVGFTRMFRLYRGYANSDRSQLERSSSRLATELGQNTVSAIVGPSGSNAGWAYRPSRAGNTPAKALGGTVPFGQASKLFRVEITAISAPGYPKVRRSNKAVIVPFEQLNQTLQQINRLGGKVASITPASLSLEHHHHHH
  soluble on expression in E. coli: not soluble

## THVYNFDVPQDPESYVHRIGRTGRAGKTGMAMTFITPREKSMLRAIEQTTKRKMDRMKEPTLDEALEGQQQVTVERLRTTISENNLNFYMTAAAELLEDHDAVTVVAAAIKMATKEPDDTPVRLTDEAPMVSK
  soluble on expression in E. coli: not soluble
